The target in this test is endogenous Periphilin (human (endogenous in TASOR KO cells)) (UniProt Q8NEY8). The test is described as follows: co-IP; endogenous Periphilin immunoprecipitated, blot for mCherry-tagged TASOR constructs; lysis in 1% NP-40 in TBS with benzonase.

Sequences of proteins named here, by UniProt entry; tags and fusion partners are left off. A change or cut given only in a name is not applied to a line headed by its entry.
UniProt Q8NEY8: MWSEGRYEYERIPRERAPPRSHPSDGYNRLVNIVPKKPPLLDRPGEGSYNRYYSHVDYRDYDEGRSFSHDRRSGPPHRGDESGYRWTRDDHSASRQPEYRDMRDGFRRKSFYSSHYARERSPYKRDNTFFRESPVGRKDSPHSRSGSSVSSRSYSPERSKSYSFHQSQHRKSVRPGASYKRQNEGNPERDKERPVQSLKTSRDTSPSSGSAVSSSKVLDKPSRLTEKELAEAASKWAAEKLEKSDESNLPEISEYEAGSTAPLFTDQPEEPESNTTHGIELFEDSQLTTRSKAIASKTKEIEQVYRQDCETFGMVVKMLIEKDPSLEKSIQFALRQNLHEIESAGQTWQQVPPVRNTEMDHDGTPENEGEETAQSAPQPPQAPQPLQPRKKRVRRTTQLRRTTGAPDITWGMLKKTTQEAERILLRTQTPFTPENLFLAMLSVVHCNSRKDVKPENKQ

Results are given in words; binding and its absence hold for the method and conditions named. In cells and extracts the contact can be indirect.

B1: mCherry-TASOR(1–1000) (domain or fragment, UniProt Q9UK61-1 1-1000)
chain: MATAVETEACQPTDASWESGGGGDDEMKQALPELESSQQNGGGGGLNIAEPSGGAGREENAGAEAAQSLSHEQPQDSSEAGAAALPRGPEEPERPVRRSFQIPRKSREKKALFQPLTPGSREFEDVVNILHSSYLEPTSVTNFNYRRACLVHNELLEKEFTEKRRELKFDGRLDKELSESYAFLMVDRYQVQTICEKGLHVGQSKITILGSPSMGVYLSRYADLLQANPLDTGAMGDVVIFKIMKGKIKSIYDPMGVKSLESMLNKSALDPTPKHECHVSKNANRITSLLAYRAYELTQYYFYEYGFDELRRRPRHVCPYAVVSFTYKDDIQTPKFVPSSRSNSFNTDRNIDKYNYTLWKGQLLNKGKLLCYISLRSATRAFLPIKLPEKLDVETVMSIDHLKQKIPPALFYKETYLGPNEVLKNGMYCSLYEVVEKTRIGSNMESLLQKLDREKLVLVKPLGDRGYLFLLSPYQMVPPYEYQTAKSRVLHALFLFQEPRSIVTSQKGSTNAAPQERHESMPDVLKIAQFLQFSLIQCRKEFKNISAINFHSVVEKYVSEFFKRGFGSGKREFIMFPYDSRLDDKKFLYSAPRNKSHIDTCLHAYIFRPEVYQLPICKLKELFEENRKLQQFSPLSDYEGQEEEMNGTKMKFGKRNNSRGEAIISGKQRSSHSLDYDKDRVKELINLIQCRKKSVGGDSDTEDMRSKTVLKRKLEDLPENMRKLAKTSNLSENCHLYEESPQPIGSLGHDADLRRQQQDTCNSGIADIHRLFNWLSETLANARHSDASLTDTVNKALGLSTDDAYEELRQKHEYELNSTPDKKDYEQPTCAKVENAQFKGTQSLLLEVDATSKYSVAISTSEVGTDHKLHLKEDPNLISVNNFEDCSLCPSVPIEHGFRRQQSKSNNVEETEIHWKLIPITGGNARSPEDQLGKHGEKQTPGMKSPEEQLVCVPPQEAFPNDPRVINRQRSSDYQFPSSPFTDTLKGTTEDDVLTGQVEE
With B1, the binding result was “no binding”.

B2: mCherry-TASOR(1-636) (domain or fragment, UniProt Q9UK61-1 1-636)
chain: MATAVETEACQPTDASWESGGGGDDEMKQALPELESSQQNGGGGGLNIAEPSGGAGREENAGAEAAQSLSHEQPQDSSEAGAAALPRGPEEPERPVRRSFQIPRKSREKKALFQPLTPGSREFEDVVNILHSSYLEPTSVTNFNYRRACLVHNELLEKEFTEKRRELKFDGRLDKELSESYAFLMVDRYQVQTICEKGLHVGQSKITILGSPSMGVYLSRYADLLQANPLDTGAMGDVVIFKIMKGKIKSIYDPMGVKSLESMLNKSALDPTPKHECHVSKNANRITSLLAYRAYELTQYYFYEYGFDELRRRPRHVCPYAVVSFTYKDDIQTPKFVPSSRSNSFNTDRNIDKYNYTLWKGQLLNKGKLLCYISLRSATRAFLPIKLPEKLDVETVMSIDHLKQKIPPALFYKETYLGPNEVLKNGMYCSLYEVVEKTRIGSNMESLLQKLDREKLVLVKPLGDRGYLFLLSPYQMVPPYEYQTAKSRVLHALFLFQEPRSIVTSQKGSTNAAPQERHESMPDVLKIAQFLQFSLIQCRKEFKNISAINFHSVVEKYVSEFFKRGFGSGKREFIMFPYDSRLDDKKFLYSAPRNKSHIDTCLHAYIFRPEVYQLPICKLKELFEENRKLQQFSPLS
Take B2: the binding entry is listed as “no binding”.

Values taken from PMC7532188.
